Assay results: the supplement of paper PMC4604168 (melanoma cell lines)
The other results are listed elsewhere or left out. Single values are uncertain, as repeats are few or missing.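 The apoptosis fraction was the count of cleaved-PARP antibody-stained nuclei relative to all DNA-stained nuclei, imaged in 1,536-well plates. Screening doses were set so most cells survived, and baseline and induced cleaved-PARP levels vary greatly across cell lines.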

Key:
Experiment in all cases: cleaved PARP positive nuclei fraction relative to DMSO control; melanoma cells; higher = more apoptosis
Conditions in all cases: library dose: low library concentration; 72 h
[1] = system: MZ2-MEL
[2] = system: MeWo
[3] = system: RPMI7951
[4] = system: RVH-421
[5] = system: SkMel28
[6] = system: SkMel2
[7] = system: SkMel30
[8] = system: SkMel5
[9] = system: UACC257
[10] = system: UACC62
[11] = system: WM115
[12] = system: WM1716
[13] = system: WM1745
[14] = system: WM3526
[15] = system: WM3619
[16] = system: WM451Lu

Row | Structure (SMILES) | cleaved PARP positive nuclei fraction [1] | cleaved PARP positive nuclei fraction [2] | cleaved PARP positive nuclei fraction [3] | cleaved PARP positive nuclei fraction [4] | cleaved PARP positive nuclei fraction [5] | cleaved PARP positive nuclei fraction [6] | cleaved PARP positive nuclei fraction [7] | cleaved PARP positive nuclei fraction [8] | cleaved PARP positive nuclei fraction [9] | cleaved PARP positive nuclei fraction [10] | cleaved PARP positive nuclei fraction [11] | cleaved PARP positive nuclei fraction [12] | cleaved PARP positive nuclei fraction [13] | cleaved PARP positive nuclei fraction [14] | cleaved PARP positive nuclei fraction [15] | cleaved PARP positive nuclei fraction [16]
1 | Nc1nc(F)nc2c1ncn2[C@@H]1O[C@H](CO)[C@@H](O)[C@@H]1O [fludarabine] + CCCCCCCCCCCC1=C(O)C(=O)C=C(O)C1=O [Embelin] (first compound 0.2 µM, partner dose 1.2 µM) | 56.1% | 194% | 98.1% | 166% | 88.4% | 3120% | 2620% | 132% | 447% | 43.9% | 61.7% | 180% | 73.9% | 890% | 89.3% | 197%
2 | CCCS(=O)(=O)Nc1ccc(F)c(C(=O)c2c[nH]c3ncc(Cl)cc23)c1F + Cn1cncc1[C@@](N)(c1ccc(Cl)cc1)c1ccc2c(c1)c(-c1cccc(Cl)c1)cc(=O)n2C [tipifarnib] (first compound 0.08 µM, partner dose 0.01 µM) | 182% | 98.7% | 52.7% | 129% | 214% | 174% | 54.4% | 71.9% | 52.8% | 226% | 117% | 117% | 103% | 84.5% | 91.2% | 72.4%
3 | CC(C)C[C@H](NC(=O)[C@H](Cc1ccccc1)NC(=O)c1cnccn1)B(O)O [Bortezomib] + O=C(Nc1cccc(Cl)c1)Nc1ncc(CCNc2ncnc3ccsc23)s1 [SNS314] (first compound 0.001 µM, partner dose 0.0008 µM) | 120% | 47.9% | 120% | 61.9% | 83.1% | 68.1% | 156% | 111% | 63.7% | 73.4% | 305% | 690% | 151% | 113% | 286% | 223%
4 | CCCS(=O)(=O)Nc1ccc(F)c(C(=O)c2c[nH]c3ncc(Cl)cc23)c1F + Cc1ccc(NC(=O)c2cccc(N(C)C)c2)cc1NC(=O)c1ccc(O)cc1 [ZM336372] (first compound 0.08 µM, partner dose 2 µM) | 94.8% | 194% | 109% | 126% | 239% | 122% | 152% | 43.5% | 174% | 322% | 68.6% | 136% | 100% | 324% | 106% | 69.8%
5 | CS(=O)(=O)CCNCc1ccc(-c2ccc3ncnc(Nc4ccc(OCc5cccc(F)c5)c(Cl)c4)c3c2)o1 [lapatinib] + CC(C)(C)c1cnc(CSc2cnc(NC(=O)C3CCNCC3)s2)o1 [SNS-032] (first compound 0.8 µM, partner dose 0.01 µM) | 94.8% | 136% | 138% | 150% | 58.8% | 114% | 47.3% | 60.6% | 116% | 149% | 141% | 111% | 95.8% | 116% | 53.7% | 109%
6 | Nc1ncn([C@H]2C[C@H](O)[C@@H](CO)O2)c(=O)n1 [decitabine] + COc1cc(Nc2ncc(F)c(Nc3ccc4c(n3)NC(=O)C(C)(C)O4)n2)cc(OC)c1OC [Tamatinib] (first compound 0.1 µM, partner dose 0.4 µM) | 126% | 72% | 140% | 46.4% | 105% | 89.8% | 66.6% | 153% | 185% | 225% | 227% | 206% | 127% | 68.1% | 90.3% | 100%
7 | Nc1nc(F)nc2c1ncn2[C@@H]1O[C@H](CO)[C@@H](O)[C@@H]1O [fludarabine] + COC(=O)c1sccc1S(=O)(=O)Nc1ccc(Nc2ccccc2)cc1OC [GSK0660] (first compound 0.2 µM, partner dose 1 µM) | 122% | 285% | 1180% | 91% | 123% | 1780% | 1360% | 255% | 82.2% | 77.9% | 105% | 66.7% | 80.2% | 801% | 90.8% | 148%
8 | Cn1c(=O)n(-c2ccc(C(C)(C)C#N)cc2)c2c3cc(-c4cnc5ccccc5c4)ccc3ncc21 + COc1cc(Nc2ncc(F)c(Nc3ccc4c(n3)NC(=O)C(C)(C)O4)n2)cc(OC)c1OC [Tamatinib] (first compound 0.004 µM, partner dose 0.4 µM) | 65.8% | 376% | 84.1% | 90.6% | 160% | 97.6% | 77% | 157% | 168% | 488% | 127% | 186% | 129% | 156% | 110% | 72.7%
9 | CCCS(=O)(=O)Nc1ccc(F)c(C(=O)c2c[nH]c3ncc(Cl)cc23)c1F + CC(C)(C)c1cnc(CSc2cnc(NC(=O)C3CCNCC3)s2)o1 [SNS-032] (first compound 0.08 µM, partner dose 0.01 µM) | 154% | 91.5% | 110% | 221% | 271% | 139% | 78.8% | 93% | 46.1% | 356% | 103% | 80.2% | 124% | 79.7% | 94% | 33.6%
10 | Nc1ncn([C@H]2C[C@H](O)[C@@H](CO)O2)c(=O)n1 [decitabine] + Cc1cc([N+](=O)[O-])ccc1NS(=O)(=O)c1cc(Cl)ccc1Cl [FH535] (first compound 0.1 µM, partner dose 1 µM) | 96.1% | 70.1% | 36.1% | 145% | 199% | 81.7% | 137% | 90.2% | 126% | 137% | 51.6% | 173% | 92.3% | 129% | 125% | 169%

Retrieved one by one from above (two):
Row | Structure (SMILES) | cleaved PARP positive nuclei fraction [1] | cleaved PARP positive nuclei fraction [2] | cleaved PARP positive nuclei fraction [3] | cleaved PARP positive nuclei fraction [4] | cleaved PARP positive nuclei fraction [5] | cleaved PARP positive nuclei fraction [6] | cleaved PARP positive nuclei fraction [7] | cleaved PARP positive nuclei fraction [8] | cleaved PARP positive nuclei fraction [9] | cleaved PARP positive nuclei fraction [10] | cleaved PARP positive nuclei fraction [11] | cleaved PARP positive nuclei fraction [12] | cleaved PARP positive nuclei fraction [13] | cleaved PARP positive nuclei fraction [14] | cleaved PARP positive nuclei fraction [15] | cleaved PARP positive nuclei fraction [16]
9 | CCCS(=O)(=O)Nc1ccc(F)c(C(=O)c2c[nH]c3ncc(Cl)cc23)c1F + CC(C)(C)c1cnc(CSc2cnc(NC(=O)C3CCNCC3)s2)o1 [SNS-032] (first compound 0.08 µM, partner dose 0.01 µM) | 154% | 91.5% | 110% | 221% | 271% | 139% | 78.8% | 93% | 46.1% | 356% | 103% | 80.2% | 124% | 79.7% | 94% | 33.6%
1 | Nc1nc(F)nc2c1ncn2[C@@H]1O[C@H](CO)[C@@H](O)[C@@H]1O [fludarabine] + CCCCCCCCCCCC1=C(O)C(=O)C=C(O)C1=O [Embelin] (first compound 0.2 µM, partner dose 1.2 µM) | 56.1% | 194% | 98.1% | 166% | 88.4% | 3120% | 2620% | 132% | 447% | 43.9% | 61.7% | 180% | 73.9% | 890% | 89.3% | 197%
